Laboratory results from patent publication US7572832B2, “Non-hygroscopic L-carnitine salts” (Biolink Life Sciences, Inc., priority 2007, dated 2009).

Assay: Odor and taste of the solid
Settings: for taste: ingestion

C[N+](C)(C)C[C@H](O)CC(=O)[O-].O=C([O-])/C=C/C(=O)[O-].[Ca+2] [L-carnitine calcium fumarate]
odor (calcium fumarate): objectionable odor; also recorded: distasteful “fishy” odor
taste: objectionable odor and taste

L-carnitine calcium butyrate
odor: odorless
taste: somewhat bitter after-taste; also recorded: no objectionable taste but had a somewhat bitter aftertaste

C[N+](C)(C)C[C@H](O)CC(=O)[O-].O=C([O-])C(O)C(O)C(=O)[O-].[Ca+2] [L-carnitine calcium tartrate]
odor: distasteful “fishy” odor

CCC(=O)[O-].CCC(=O)[O-].C[N+](C)(C)C[C@H](O)CC(=O)[O-].[Ca+2] [L-carnitine calcium propionate]
odor: very slight odor
taste: no objectionable taste

CC(=O)[O-].CC(=O)[O-].C[N+](C)(C)C[C@H](O)CC(=O)[O-].[Ca+2] [L-carnitine calcium acetate]
taste: no objectionable taste

“Also recorded” adds a separate entry of the source. Read-outs that look alike come from different tables or passages of the source.
